Experimental data: US6696546

Chains of the proteins cited; added tags and fusions are not shown. Lines headed by an entry give the natural chain unless they say otherwise; changes in a name come on top.
UniProt P14635: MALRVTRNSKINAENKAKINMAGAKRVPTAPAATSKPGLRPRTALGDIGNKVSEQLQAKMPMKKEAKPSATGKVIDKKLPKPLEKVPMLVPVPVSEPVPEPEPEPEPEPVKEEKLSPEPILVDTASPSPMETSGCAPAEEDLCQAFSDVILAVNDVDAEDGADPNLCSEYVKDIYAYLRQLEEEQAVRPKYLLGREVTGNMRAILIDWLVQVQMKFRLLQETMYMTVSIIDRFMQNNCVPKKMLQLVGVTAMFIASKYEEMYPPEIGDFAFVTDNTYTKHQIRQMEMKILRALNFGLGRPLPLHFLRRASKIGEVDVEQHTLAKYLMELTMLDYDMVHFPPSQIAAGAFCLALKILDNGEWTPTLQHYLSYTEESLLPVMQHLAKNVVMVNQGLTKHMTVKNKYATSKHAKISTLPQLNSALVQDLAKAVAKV
UniProt P25500: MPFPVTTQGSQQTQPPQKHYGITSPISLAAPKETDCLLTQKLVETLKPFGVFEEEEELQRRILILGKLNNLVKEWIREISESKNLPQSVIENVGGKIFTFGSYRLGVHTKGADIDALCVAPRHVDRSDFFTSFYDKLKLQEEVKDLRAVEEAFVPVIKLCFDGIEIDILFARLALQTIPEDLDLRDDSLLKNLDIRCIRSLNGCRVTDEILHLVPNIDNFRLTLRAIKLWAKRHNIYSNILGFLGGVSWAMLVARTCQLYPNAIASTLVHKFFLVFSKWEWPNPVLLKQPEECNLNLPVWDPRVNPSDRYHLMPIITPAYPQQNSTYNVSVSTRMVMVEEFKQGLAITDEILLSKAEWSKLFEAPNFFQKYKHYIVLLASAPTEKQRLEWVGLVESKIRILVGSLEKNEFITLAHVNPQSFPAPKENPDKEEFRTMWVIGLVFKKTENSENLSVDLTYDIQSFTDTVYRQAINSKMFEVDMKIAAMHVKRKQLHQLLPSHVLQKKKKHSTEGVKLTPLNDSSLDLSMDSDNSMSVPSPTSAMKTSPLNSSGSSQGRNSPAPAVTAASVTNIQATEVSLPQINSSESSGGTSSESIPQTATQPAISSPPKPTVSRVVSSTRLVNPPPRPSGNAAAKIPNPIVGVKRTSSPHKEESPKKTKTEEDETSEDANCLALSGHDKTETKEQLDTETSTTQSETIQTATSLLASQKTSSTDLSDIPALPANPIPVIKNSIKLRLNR

Molecular target: GST-Cyclin B1 fusion protein (UniProt P14635)
Test: GST-cyclin B1 pull-down of in vitro translated 35S truncated PAP, autoradiography

binding: no binding
Substance: N-terminal truncated PAP (539-689aa) (from UniProt P25500) (enzyme)

These are yes or no findings as the source states them, for the method shown.
